Data: the supplement of paper PMC9135407
Where “and” joins values, the source holds several entries; their conditions need not be identical. Identical values can stand only once. Counter-ions that a name gives are not always drawn. ± gives the standard deviation of the averaged measurements. This is one part of the list. Baselines shift from plate to plate; read single values as rough.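 Primary human stellate myofibroblasts activated in culture; inactivation shown by regained lipid droplets. Readout: fraction of Hoechst-counted cells exceeding a per-plate Bodipy threshold, duplicate wells, each plate with DMSO negative and nortriptyline positive controls. Hits: control-normalized score beyond the plate's top-tenth-percentile nortriptyline wells, or among its three best wells. Final well concentrations unstated.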

Tested on: primary human hepatic stellate cells (donor 1)
Experiment: percent Bodipy-positive cells; higher = more lipid droplet accumulation
Details: 48 h
[1] = library stock concentration: 10 mM
[2] = library stock concentration: 3.33 mM
[3] = library stock concentration: 1 mM
[4] = library stock concentration: 400 uM
[5] = library stock concentration: 2 mM

SMILES: CC(C)=CCC[C@](C)(O)C1CC=C(C)CC1 (stereo partly specified) [Bisabolol]
- percent Bodipy-positive cells [1]: 27.9 ± 0.51%

SMILES: CCCCc1oc2ccccc2c1C(=O)c1cc(I)c(OCCN(CC)CC)c(I)c1.Cl [Amiodarone HCl]
- percent Bodipy-positive cells [1]: 92 ± 1.5%

SMILES: Nc1nc(=O)c2c([nH]1)NC[C@@H](CNc1ccc(C(=O)N[C@@H](CCC(=O)O)C(=O)O)cc1)N2C=O [Folinic acid calcium salt]
- percent Bodipy-positive cells: 7.88 ± 4.8%

SMILES: COc1ccc2cc([C@@H](C)C(=O)O)ccc2c1 [(R) -Naproxen sodium salt]
- percent Bodipy-positive cells: 9.37 ± 2.2%

SMILES: CC(C)NCC(O)COc1cccc2ccccc12 (stereo unspecified)
- percent Bodipy-positive cells [1]: 84.5 ± 2.4%

SMILES: CC(C)NCC(O)COc1cccc2ccccc12 (stereo unspecified) [Propranolol]
- percent Bodipy-positive cells (library stock concentration: 7.7 mM): 49.4 ± 4%

SMILES: CC(C)NCC(O)COc1cccc2ccccc12 (stereo unspecified) [Propranolol HCl]
- percent Bodipy-positive cells [2]: 31.4 ± 5.7%
- percent Bodipy-positive cells [1]: 79.5 ± 13%

SMILES: CC(C)NCC(O)COc1cccc2ccccc12 (stereo unspecified) [Propranolol hydrochloride]
- percent Bodipy-positive cells: 44 ± 5.8%
- percent Bodipy-positive cells [1]: 51.55 ± 0.45%

SMILES: Cn1cc(C2=C(c3ccc(Cl)cc3Cl)C(=O)NC2=O)c2ccccc21
- percent Bodipy-positive cells [1]: 93.44 ± 0.44%

SMILES: CCCCn1c(=O)c2c(ncn2CC(C)=O)n(CCCC)c1=O [Denbufylline]
- percent Bodipy-positive cells (library stock concentration: 6.2 mM): 7.18 ± 0.28%

SMILES: Nc1ncnc2c1c(-c1cnc3[nH]ccc3c1)nn2C1CCCC1
- percent Bodipy-positive cells [2]: 12.4 ± 1.1%
- percent Bodipy-positive cells [1]: 49.1 ± 2.7%

SMILES: Cc1c[nH]c(=O)n(CCCN2CCN(c3ccccc3OCC(F)(F)F)CC2)c1=O
- percent Bodipy-positive cells [1]: 14.2 ± 0.8%

SMILES: CCCCC/C=C\C/C=C\C/C=C\C/C=C\CCCC(=O)O[C@H](COCCCCCCCCCCCCCCCC)COP(=O)([O-])OCC[N+](C)(C)C [Arachidonoyl-PAF]
- percent Bodipy-positive cells [3]: 28.6 ± 20%

SMILES: COc1cc(OC)cc(-c2cc3cnc(N)nc3nc2NC(=O)NC(C)(C)C)c1
- percent Bodipy-positive cells [1]: 23.8 ± 1.7%

SMILES: COc1ccc2cc1Oc1ccc(cc1)C[C@H]1c3cc(c(OC)cc3CCN1C)Oc1c(OC)c(OC)cc3c1[C@H](C2)N(C)CC3 [Tetrandine]
- percent Bodipy-positive cells (library stock concentration: 8 mM): 100%

SMILES: COc1ccc2cc1Oc1ccc(cc1)C[C@H]1c3cc(c(OC)cc3CCN1C)Oc1c(OC)c(OC)cc3c1[C@H](C2)N(C)CC3 [Tetrandrine]
- percent Bodipy-positive cells: 99.164 ± 0.069%
- percent Bodipy-positive cells [2]: 98.3 ± 1%
- percent Bodipy-positive cells [1]: 100%

SMILES: CCC=CCC=CCC=CCC=CCCCCCCC(=O)O [.omega.-3 Arachidonic Acid]
- percent Bodipy-positive cells [3]: 11 ± 2.7%

SMILES: CCCCC[C@H](O)/C=C/[C@H]1[C@H](O)CC(=O)[C@@H]1C/C=C/CCCC(=O)Oc1ccc(NC(C)=O)cc1 [Prostaglandin E2 p-acetamidophenyl ester]
- percent Bodipy-positive cells [3]: 18.4 ± 3.4%

SMILES: CCC(=O)Nc1ccc2ncnc(Nc3cccc(Br)c3)c2c1
- percent Bodipy-positive cells [2]: 10.9 ± 0.12%

SMILES: Cc1coc2c1C(=O)C(=O)c1c-2ccc2c(C)cccc12 [Tanshinone I]
- percent Bodipy-positive cells [2]: 8.44 ± 0.81%
- percent Bodipy-positive cells [1]: 29.5 ± 11%

SMILES: C[C@@]12C[C@@]3(O)O[C@@H](O1)[C@]1(COC(=O)c4ccccc4)[C@H]3C[C@@]12O[C@@H]1O[C@H](CO)[C@@H](O)[C@H](O)[C@H]1O [Paeoniflorin]
- percent Bodipy-positive cells [2]: 16.9 ± 14%
- percent Bodipy-positive cells [1]: 10.1 ± 0.79%

SMILES: COc1cc(Nc2nc3ccccc3nc2NS(=O)(=O)c2ccc(NC(=O)c3ccc(C)c(OC)c3)cc2)cc(OC)c1
- percent Bodipy-positive cells [2]: 11.9 ± 5.6%
- percent Bodipy-positive cells [1]: 28 ± 3.9%

SMILES: COc1cc(Nc2nc3ccccc3nc2NS(=O)(=O)c2ccc(NC(=O)c3ccc(C)c(OC)c3)cc2)cc(OC)c1 [pseudoXL765]
- percent Bodipy-positive cells (library stock concentration: 80 uM): 11.8 ± 2.2%
- percent Bodipy-positive cells [4]: 12.8 ± 7.7%
- percent Bodipy-positive cells [5]: 19.6 ± 7.9%
- percent Bodipy-positive cells [1]: 41.8 ± 15%

SMILES: Cc1ccccc1-n1c(Cn2nc(-c3cccc(O)c3)c3c(N)ncnc32)nc2cccc(C)c2c1=O
- percent Bodipy-positive cells [4]: 11.9 ± 2.6%
- percent Bodipy-positive cells [5]: 17 ± 8.4%
- percent Bodipy-positive cells [2]: 6.27 ± 1.1%
- percent Bodipy-positive cells [1]: 15.2% and 21.6%

SMILES: CCC1=C(C)CN(C(=O)NCCc2ccc(S(=O)(=O)NC(=O)N[C@H]3CC[C@H](C)CC3)cc2)C1=O [Glimepiride]
- percent Bodipy-positive cells: 10.91 ± 0.029%
- percent Bodipy-positive cells [2]: 7.07 ± 1.6%
- percent Bodipy-positive cells [1]: 9.75% and 5.7%

SMILES: CCC1=C(C)CN(C(=O)NCCc2ccc(S(=O)(=O)NC(=O)N[C@H]3CC[C@H](C)CC3)cc2)C1=O
- percent Bodipy-positive cells [1]: 13 ± 5.8%

SMILES: O=C1CCc2cc(OCCCCc3nnnn3C3CCCCC3)ccc2N1 [Cilostazol]
- percent Bodipy-positive cells: 29.8 ± 7%
- percent Bodipy-positive cells [2]: 9.85 ± 4.9%
- percent Bodipy-positive cells (library stock concentration: 5.4 mM): 12.8 ± 7.3%

SMILES: N#C[C@@H]1C[C@@H]2C[C@@H]2N1C(=O)[C@@H](N)C12CC3CC(CC(O)(C3)C1)C2 [Saxagliptin]
- percent Bodipy-positive cells [2]: 7.351 ± 0.03%
- percent Bodipy-positive cells [1]: 15.9 ± 6.2%

SMILES: N#C[C@@H]1C[C@@H]2C[C@@H]2N1C(=O)[C@@H](N)C12CC3CC(CC(O)(C3)C1)C2
- percent Bodipy-positive cells [1]: 19.5 ± 6.1%

SMILES: CCS(=O)(=O)CCn1c([N+](=O)[O-])cnc1C [Tinidazole]
- percent Bodipy-positive cells: 11.5 ± 0.94%
- percent Bodipy-positive cells [2]: 8.82 ± 3.5%
- percent Bodipy-positive cells (library stock concentration: 8.1 mM): 8.03% and 20.6%
- percent Bodipy-positive cells [1]: 34% and 33.5%

SMILES: CCS(=O)(=O)CCn1c([N+](=O)[O-])cnc1C
- percent Bodipy-positive cells [1]: 8.84 ± 2.6%

SMILES: CC[C@H]1OC(=O)[C@H](C)C(=O)[C@H](C)[C@@H](O[C@@H]2O[C@H](C)C[C@H](N(C)C)[C@H]2O)[C@](C)(OC)C[C@@H](C)C(=O)[C@H](C)[C@H]2N(CCCCn3cnc(-c4cccnc4)c3)C(=O)O[C@]12C [Telithromycin]
- percent Bodipy-positive cells [1]: 40.3 ± 12%

SMILES: CC[C@H]1OC(=O)[C@H](C)C(=O)[C@H](C)[C@@H](O[C@@H]2O[C@H](C)C[C@H](N(C)C)[C@H]2O)[C@](C)(OC)C[C@@H](C)C(=O)[C@H](C)[C@H]2N(CCCCn3cnc(-c4cccnc4)c3)C(=O)O[C@]12C
- percent Bodipy-positive cells [1]: 49.4 ± 11%

SMILES: CCCCOc1cc(C(=O)NCCN(CC)CC)c2ccccc2n1 [Dibucaine]
- percent Bodipy-positive cells: 57.2 ± 8.4%
